For 3 molecules, binding results are on record in publication PMC9323616.

In experiment [1] the target is T1, WRKY53 (residues 1-217)-BK (Arabidopsis) (UniProt Q9SUP6).
T1 sequence: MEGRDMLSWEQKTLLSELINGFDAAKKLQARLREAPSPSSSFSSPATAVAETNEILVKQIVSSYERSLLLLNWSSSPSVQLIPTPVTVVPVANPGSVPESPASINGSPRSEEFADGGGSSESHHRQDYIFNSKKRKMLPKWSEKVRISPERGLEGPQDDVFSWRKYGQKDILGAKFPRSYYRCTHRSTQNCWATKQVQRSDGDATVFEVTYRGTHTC
As to the kind of experiment: two-hybrid; yeast AH109; WRKY53 (residues 1-217) in pGBKT7 as bait, CAM1 in pGADT7 as prey; growth on SD/-Leu/-Trp, SD/-Ade/-His/-Leu/-Trp and blue colonies with X-alpha-gal; three independent experiments.

In experiment [2] the target is T2, WRKY53-Nluc (Arabidopsis) (UniProt Q9SUP6).
T2 sequence: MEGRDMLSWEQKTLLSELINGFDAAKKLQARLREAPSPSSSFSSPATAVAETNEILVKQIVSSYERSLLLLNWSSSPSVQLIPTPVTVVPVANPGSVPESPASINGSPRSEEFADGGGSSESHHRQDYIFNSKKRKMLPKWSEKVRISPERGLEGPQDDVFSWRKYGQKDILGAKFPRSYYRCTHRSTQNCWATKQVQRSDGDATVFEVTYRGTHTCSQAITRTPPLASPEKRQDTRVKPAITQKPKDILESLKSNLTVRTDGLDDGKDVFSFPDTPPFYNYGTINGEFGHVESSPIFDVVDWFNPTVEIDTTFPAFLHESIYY
Description: split reporter; firefly luciferase complementation imaging (LCI) in leaves infiltrated with Agrobacterium GV3101; imaged after 2-3 days.

In experiment [3] the target is CAM1-GST (Arabidopsis) (UniProt P0DH95). Description: pull-down; in vitro; CAM1-GST or GST on glutathione beads, WRKY53-HIS detected with anti-HIS; buffer 1% NP40, 150 mM NaCl, 50 mM Tris-HCl, 1 mM EGTA, pH7.5; no calcium added.
Experiment [4] has the same target. As to the kind of experiment: condition: only with calcium added (Ca2+ concentration is 10^-2 mM in the legend of Figure 3); pull-down; pull-down of CAM1 and WRKY53 with calcium added (Figure 3c; the legend gives Ca2+ concentration 10^-2 mM).

No constants are given. Whether binding was seen depends on the method and setting. For some of these results: Binding seen in cells or lysates may run through a third protein. Some entries that bind do so weakly or less than the wild type. For some of these results: Tags and fused reporters may be left off the sequences shown.

Consider “CAM1-AD (calmodulin 1 in pGADT7) (from UniProt P0DH95 1-149)”, for which the binding entry in experiment [1] is reported as “binds”. Turning to CAM1-Cluc (from UniProt P0DH95 1-149), in experiment [2], the binding entry is reported as “binds”.

B1: WRKY53-HIS (protein, UniProt Q9SUP6 1-324)
chain: T2 sequence
In the case of B1, the results for the binding entry in experiment [3] and in experiment [4] were “binds” and “no binding”, respectively.
